Experimental findings from PMC7264342 are described below.

Sequences of proteins named here, by UniProt entry; tags and fusion partners are left off.
UniProt Q15910: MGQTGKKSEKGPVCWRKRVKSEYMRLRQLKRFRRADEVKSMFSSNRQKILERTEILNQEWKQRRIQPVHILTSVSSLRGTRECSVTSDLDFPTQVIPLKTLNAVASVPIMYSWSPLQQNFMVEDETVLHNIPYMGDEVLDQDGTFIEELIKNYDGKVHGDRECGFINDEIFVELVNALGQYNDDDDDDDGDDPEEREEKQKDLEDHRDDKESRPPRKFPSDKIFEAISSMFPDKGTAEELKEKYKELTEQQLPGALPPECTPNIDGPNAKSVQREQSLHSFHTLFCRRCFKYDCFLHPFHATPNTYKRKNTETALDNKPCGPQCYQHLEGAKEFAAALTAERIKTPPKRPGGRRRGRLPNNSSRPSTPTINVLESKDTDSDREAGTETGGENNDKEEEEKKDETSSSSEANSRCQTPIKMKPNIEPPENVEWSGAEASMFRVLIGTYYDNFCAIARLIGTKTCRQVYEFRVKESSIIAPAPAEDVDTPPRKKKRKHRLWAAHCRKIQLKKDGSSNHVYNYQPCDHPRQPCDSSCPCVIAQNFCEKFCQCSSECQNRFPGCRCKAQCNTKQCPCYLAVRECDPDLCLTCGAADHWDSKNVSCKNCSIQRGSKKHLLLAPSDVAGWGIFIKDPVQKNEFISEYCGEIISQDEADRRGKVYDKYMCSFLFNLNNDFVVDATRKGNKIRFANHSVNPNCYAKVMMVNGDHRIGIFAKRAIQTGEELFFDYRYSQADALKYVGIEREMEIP
UniProt Q9UQM7: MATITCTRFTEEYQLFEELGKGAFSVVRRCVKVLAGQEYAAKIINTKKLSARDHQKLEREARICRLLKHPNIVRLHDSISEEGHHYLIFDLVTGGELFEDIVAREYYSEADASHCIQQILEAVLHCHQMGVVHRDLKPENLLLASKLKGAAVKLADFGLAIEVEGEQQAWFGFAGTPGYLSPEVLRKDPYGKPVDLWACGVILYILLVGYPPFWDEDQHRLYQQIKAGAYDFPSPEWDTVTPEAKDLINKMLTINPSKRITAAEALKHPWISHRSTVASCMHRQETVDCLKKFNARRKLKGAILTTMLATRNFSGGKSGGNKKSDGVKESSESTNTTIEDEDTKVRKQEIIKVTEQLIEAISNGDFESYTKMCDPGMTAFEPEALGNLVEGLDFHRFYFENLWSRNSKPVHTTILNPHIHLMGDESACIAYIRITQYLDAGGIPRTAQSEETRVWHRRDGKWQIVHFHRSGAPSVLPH

The assay addresses EZH2, overexpressed in HEK293T (UniProt Q15910). The assay can be described thus: co-IP; HEK293T cells overexpressing CAMK2A and EZH2 (wild type or mutant); 1 mg lysate with 3 µg anti-CAMK2A or anti-EZH2, 4 °C 4 h, protein-G beads overnight, NETN buffer washes; immunoblot; isotype matched control. Background: Immunoblotting shows a protein as a band on a membrane.

No constants are given. Whether binding was seen depends on the method and setting. In cells and extracts the contact can be indirect. Some results given as binding are weak or reduced against the parent protein; the word gives no strength.

Turning to “Calcium/Calmodulin dependent protein kinase II alpha (CAMK2A), overexpressed in HEK293T (from UniProt Q9UQM7 1-478) (enzyme)”, the binding result is “binds”.
